Laboratory results reported in patent US11999742B2, “Substituted pyrrolo[1,2-b]pyridazines as anthelmintics” (BOEHRINGER INGELHEIM VETMEDICA GMBH, priority 2021, dated 2024).
At least one read-out could not be matched to a standard name with certainty.

Test system: Dirofilaria immitis (JYD-34 isolate)
Test: In vivo efficacy against resistant JYD-34 isolate in immune-deficient NSG mice
Details: oral 25 mg/kg on Day 1, 15 and 30, count at Day 45

SMILES: Cc1cc2c(C(C)C)c(C(=O)N[C@H]3CCOc4ccccc43)cnn2c1-c1cc(Cl)cc(Cl)c1 [Compound A465, 7-(3,5-dichlorophenyl)-N-[(4S)-3,4-dihydro-2H-1-benzopyran-4-yl]-6-methyl-4-(propan-2-yl)pyrrolo[1,2-b]pyridazine-3-carboxamide]
- efficacy (live D. immitis larvae recovered): 68%
